PubChem BioAssay AID2685 (National Center for Advancing Translational Sciences (NCATS), 2010)
The whole screen tested about 320,000 compounds, of which about 2,100 (0.66%) were called active. The inconclusive results got no clear call from the source; some entries with a clear call stand among them for comparison. Calls follow the shape of the dose curve; as a rule, active = well fitted inhibition curve with a large enough effect in the signal ratio, with a control signal flat (not every such curve was filed as active); inconclusive = small, poorly fitted or top-dose-only effect, or effect the other way, or a change in a side signal; inactive = flat fitted curve, though single readings scatter; the % refers to the signal ratio. Potencies of inconclusive entries are doubtful fits and often do not repeat.
% is scaled to controls: 0 for no effect and ±100 for the full control effect; potency is read from the fitted curve at half-maximal effect.

Experiment: qHTS Assay for Lipid Storage Modulators in Drosophila S3 Cells
Conditions: BODIPY lipid droplet fluorescence, 18-24 h, cells fed with added oleic acid; lipid storage change, negative = inhibition: at 46.1 µM (top of the series) unless noted
In short: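 Laser-scanning cytometry quantifies lipid droplet accumulation (500–530 nm total intensity; droplet/cell object ratio) in oleic acid-fed (400 uM added) Drosophila S3 cells treated with a concentration series. 20 uM Triacsin C defined 100% inhibition.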
With `COC(=O)c1[nH]c2ccc(Cl)cc2c1NC(=O)CN1CCc2cc(OC)c(OC)cc2C1` the Potency was inconclusive: 1.84 µM [activator, partial curve]. With `CN(Cc1ccccc1NS(=O)(=O)c1ccc(Cl)cc1)C1CCCCC1` the lipid storage change, negative = inhibition was inconclusive: -2.48%. For `COc1ccc(N2CC(C(=O)Nc3cc(C)on3)CC2=O)cc1` (stereo unspecified), the lipid storage change, negative = inhibition was inconclusive: -122%. In the case of `CN1CCN(C(=O)C2=C[C@@H](c3csc4ccccc34)C[C@@H](OCc3ccc(CO)cc3)O2)CC1`, the “lipid storage change, negative = inhibition” value was inactive: 6.22%. With `COc1ccc(Cl)cc1NC(=O)COC(C)=O` the lipid storage change, negative = inhibition was inconclusive: 18.5%. For `Cc1ccc(-n2[nH]c(C)c(/C=C3/C=Nc4ccccc43)c2=O)cc1C`, the lipid storage change, negative = inhibition was inconclusive: -18.2%. In the case of `CCOc1cc(CN2CCSCC2)ccc1O`, the lipid storage change, negative = inhibition was inconclusive: 1.1%. For `CC(NC(=O)C1CCN(c2nnc(N3CCCC3=O)s2)CC1)c1ccccc1` (stereo unspecified), the lipid storage change, negative = inhibition was inconclusive: -2.13%. In the case of `O=C(COc1ccc(S(=O)(=O)N2CCOCC2)cc1)N1CCCCCC1`, the lipid storage change, negative = inhibition was inconclusive: -19.4%. With `Cc1c([N+](=O)[O-])cc(S(=O)(=O)Nc2ccc(-c3ccc(N4CCCC4)nn3)cc2)cc1[N+](=O)[O-]` the lipid storage change, negative = inhibition was “inconclusive”. With `O=C(Nc1ccc(S(=O)(=O)N2CCOCC2)cc1)c1ccc(Cl)cc1Cl` the Potency was inconclusive: 9.2 µM [falling, partial curve]. With `Cc1ccc(C)c(-n2nnnc2SCC(=O)NNC(=O)c2ccco2)c1` the lipid storage change, negative = inhibition was inconclusive: -5.83%. For `CN1C(=O)C(O)(CC(=O)c2ccccn2)c2cc(Br)ccc21` (stereo unspecified), the lipid storage change, negative = inhibition was inconclusive: 14.6%. With `CCOc1ccc(NC(=O)CN(C)C(=O)C2CSC3(C)CCC(=O)N23)cc1OCC` (stereo unspecified) the lipid storage change, negative = inhibition was inconclusive: -51.4%. With `CCN(CCNS(=O)(=O)c1ccc2c(c1)oc(=O)n2C)c1ccccc1` the lipid storage change, negative = inhibition was inconclusive: 3.77%. With `O=C(C1CCCC1)N1CCC(CC2CC(c3ccc(Cl)cc3)=NO2)(C(=O)NCC2CCCCC2)CC1` (stereo unspecified) the Potency was inconclusive: 29.1 µM [falling, single point]. In the case of `CCOc1ccc2nc(NCCNC(=S)NCCCN(C)C)c(C#N)cc2c1`, the lipid storage change, negative = inhibition was inconclusive: 23.8%. With `Cc1sc2ncnc(SCC(=O)NNC(=O)c3ccco3)c2c1C` the lipid storage change, negative = inhibition was inconclusive: 45.1%. With `CCOC(=O)c1ccc(NC(=O)N2CCN(c3ccccn3)CC2)cc1` the Potency was inconclusive: 0.82 µM [activator, full curve]. For `CC(=O)Nc1cc(Cl)c(N=Cc2ccc(O)cc2O)cc1Cl`, the lipid storage change, negative = inhibition was inconclusive: 5.96%. For `CCc1cc2c(NC3CCCC3)ncnc2s1`, the lipid storage change, negative = inhibition was inconclusive: -20.6%. For `CCOC(=O)c1ccc(/C=C2/C=C(c3ccccc3)N(c3ccc(Cl)c(C(=O)O)c3)C2=O)cc1`, the Potency was inconclusive: 18.4 µM [falling, partial curve]. With `CCOc1cccc2cc(-c3csc(NC(=O)CCC(=O)NCCCN4CCC(C)CC4)n3)c(=O)oc12` the lipid storage change, negative = inhibition was inconclusive: 0.919%. In the case of `CCSc1nc(-c2ccccc2)nc(C(Cl)Cl)n1`, the Potency was active: 5.17 µM. In the case of `O=C(NCc1ccccc1F)c1ccncc1`, the Potency was inconclusive: 5.17 µM [falling, single point]. For `Cc1cccc(/C=C(\C(=O)C(=O)O)c2ccc3ccccc3n2)c1`, the Potency was inconclusive: 4.11 µM [activator, full curve, poor fit]. For `CCC(C)Sc1nnc(Cc2cc(=O)[nH]c(=O)[nH]2)n1-c1ccc(OC)cc1` (stereo unspecified), the Potency was inconclusive: 0.146 µM [falling, full curve, poor fit]. With `O=C(N/N=C/c1ccc2ncccc2c1)c1cccc([N+](=O)[O-])c1` the lipid storage change, negative = inhibition was inconclusive: -10.4%. With `COCCc1nn2c(=O)cc(COC(=O)c3cc(OC)c(OC)c(OC)c3)nc2s1` the “lipid storage change, negative = inhibition” value was inactive: -24.2%. For `Cc1cccc(C(P(=O)(c2ccccc2)c2ccccc2)P(=O)(c2ccccc2)c2ccccc2)n1`, the Potency was inconclusive: 2.31 µM [falling, full curve, poor fit]. With `COc1ccc(-n2c(SCC(=O)Nc3ccc(NC(C)=O)cc3)nc3c([nH]c4ccccc43)c2=O)cc1OC` the Potency was inconclusive: 4.11 µM [activator, full curve, poor fit]. For `CCOc1ccc(OCC)c(NC(=O)CN(C)S(=O)(=O)c2ccc3nc(C)sc3c2)c1`, the Potency was inconclusive: 3.66 µM [activator, partial curve]. With `c1ccc(CSc2nnc(-c3ccncc3)o2)cc1` the Potency was inconclusive: 6.51 µM [activator, single point]. For `O=C(c1ccc(Cl)c(Cl)c1)N1CCC(=O)N(C(COCc2cccc(C(F)(F)F)c2)Cc2ccccc2)CC1` (stereo unspecified), the lipid storage change, negative = inhibition was inconclusive: 23.5%. With `Cc1ccc(S(=O)(=O)N2CCn3cccc3C2C)cc1` (stereo unspecified) the Potency was inconclusive: 0.13 µM [falling, full curve, poor fit]. With `Cc1cc(C(=O)NC2CCC(C)CC2)c(C)o1` (stereo unspecified) the “lipid storage change, negative = inhibition” value was inactive: -14.9%. With `COc1cccc(CC(=O)N2CCC(CCC(=O)Nc3cccc(OC)c3)CC2)c1` the lipid storage change, negative = inhibition was inconclusive: -24.6%. For `COC(=O)CCP(=O)(O)Cc1ccccc1CP(=O)(O)CCC(=O)OC`, the Potency was inconclusive: 6.51 µM [cytotoxic, single point]. With `c1ccc(-c2cn3nc4c(nc3n2)CCCC4)cc1` the lipid storage change, negative = inhibition was inconclusive: 43.3% [activator]. With `COc1ccc(OC)c(NC(=O)CCn2cccc2)c1` the lipid storage change, negative = inhibition was inconclusive: -16%. For `Fc1ccc(CNc2nc3ccccc3n3cnnc23)cc1`, the Potency was inconclusive: 0.092 µM [activator, full curve, poor fit]. With `COc1ccc(CCNC(=O)C(=O)NCC2OCCN2S(=O)(=O)c2ccc(OC)c(OC)c2)cc1` (stereo unspecified) the Potency was inconclusive: 29.1 µM [falling, single point]. In the case of `COCCNC(=O)c1ccccc1NC(=O)Cc1ccccc1`, the lipid storage change, negative = inhibition was inconclusive: 25.5%. For `C=C(C)CSc1nnc([C@@H](NC(=O)OC(C)(C)C)C(C)CC)o1` (stereo partly specified), the lipid storage change, negative = inhibition was inconclusive: 10.1%. With `COCCN(C(=S)Nc1ccc(Cl)cc1OC)C1CCN(C(C)=O)CC1` the lipid storage change, negative = inhibition was inconclusive: 28.8%. With `COc1ccc(C2C3=C(CCCC3=O)Nc3nc(SCc4ccc(C(=O)O)cc4)nn32)cc1OC` (stereo unspecified) the lipid storage change, negative = inhibition was inconclusive: -6.55%. With `O=C(c1ccco1)N1CCN(Cc2cc(=O)c(OCc3cccc(Cl)c3)co2)CC1` the lipid storage change, negative = inhibition was “inconclusive”. In the case of `Cc1cc(C(=O)COC(=O)CNS(=O)(=O)c2ccc3ccccc3c2)c(C)n1-c1ccccc1`, the Potency was inconclusive: 20.6 µM [activator, single point]. In the case of `CCc1nnc(NS(=O)(=O)c2ccc(N=Cc3c(C)[nH]n(-c4ccc(C)cc4)c3=O)cc2)s1`, the Potency was inconclusive: 29.1 µM [activator, single point]. In the case of `O=C(O)c1ncn(Cc2ccc(Br)cc2)c1C(=O)O`, the lipid storage change, negative = inhibition was inconclusive: -15.1%. With `O=C(N/N=C/c1ccncc1)c1cnccn1` the lipid storage change, negative = inhibition was inconclusive: 20.8%. In the case of `O=C(NCC1CCCN1S(=O)(=O)c1cccs1)c1ccccc1F` (stereo unspecified), the lipid storage change, negative = inhibition was “inconclusive”. In the case of `O=C(c1ccco1)N1CCN(C(=O)c2cn(-c3ccccc3)nc2-c2ccccc2)CC1`, the Potency was inconclusive: 20.6 µM [activator, single point]. For `CC(C)c1nnc(NC(=O)CCC(=O)NCc2cccs2)s1`, the lipid storage change, negative = inhibition was inconclusive: -40.5%. In the case of `O=C(NNC(=S)NC(=O)c1cccs1)c1ccc(NC(=O)c2ccccc2)cc1`, the lipid storage change, negative = inhibition was inconclusive: 107%. For `COc1ccc(S(=O)(=O)N/N=C\c2ccccc2F)cc1`, the Potency was inconclusive: 29.1 µM [activator, single point]. For `COc1cccc2c1OC1(CCN(C(C)C)CC1)N1N=C(c3cccnc3)CC21` (stereo unspecified), the lipid storage change, negative = inhibition was inconclusive: 18.9%. In the case of `CNc1snc(C)c1C(=O)OCC(=O)c1cc(F)ccc1OC`, the lipid storage change, negative = inhibition was inconclusive: 73%. In the case of `COc1ccccc1OCCNC(=O)c1cc(SC)ccc1Cl`, the Potency was inconclusive: 16.4 µM [activator, partial curve, poor fit]. For `Cc1ccc(CNc2nc(C)nc3sc4c(c23)CCC4)cc1`, the lipid storage change, negative = inhibition was inconclusive: -28.4%. For `Cc1cc(S(=O)(=O)N2CCOCC2)ccc1OCC(=O)N1CCCCC1`, the lipid storage change, negative = inhibition was inconclusive: -78.9%. In the case of `Cc1ccc(NCN2C(=O)C(=O)c3ccccc32)nc1`, the lipid storage change, negative = inhibition was inconclusive: -10.4%. In the case of `CN(C(=O)c1ccc2c(c1)S(=O)(=O)N=C1CCCCCN12)c1ccccc1`, the lipid storage change, negative = inhibition was inconclusive: 37.8%. In the case of `CC(C)CCN1CCN(Cc2ccoc2)CC1CCO` (stereo unspecified), the lipid storage change, negative = inhibition was inconclusive: 20.5%. With `Cc1ccc(CSC2=Nc3ccccc3C3=NC(CC(=O)NCc4ccco4)C(=O)N23)cc1` (stereo unspecified) the Potency was inconclusive: 16.4 µM [falling, single point]. For `Cc1ccnc(SCCn2c(N3CCCCC3)nc3c2c(=O)[nH]c(=O)n3C)n1`, the Potency was inconclusive: 0.731 µM [rising, partial curve, poor fit]. With `CC1CCCCN1S(=O)(=O)c1ccc2c(c1)CCN2C(=O)C1CC1` (stereo unspecified) the Potency was active: 10.3 µM. With `COc1ccc(C(=O)NCCCNC(=O)c2cc3ccccc3[nH]2)cc1OC` the lipid storage change, negative = inhibition was inconclusive: 7.56%. With `NC(=O)C1CCN(C(=O)COc2ccc(S(=O)(=O)NCc3ccccc3)cc2Cl)CC1` the lipid storage change, negative = inhibition was inconclusive: -10.2%. In the case of `CCCc1nnc(NC(=O)CSc2nc3ccccc3[nH]2)s1`, the “lipid storage change, negative = inhibition” value was inactive: 3.54%. In the case of `Cc1nc2ccccc2c(=O)n1CC(=O)N1CCOCC1`, the Potency was inconclusive: 29.1 µM [cytotoxic, single point]. In the case of `O=C(Nc1ccc(Br)cc1F)c1cccnc1`, the lipid storage change, negative = inhibition was inconclusive: 18.1%. With `Clc1ccc(-c2nnc(-c3ccccc3)c(-c3c[nH]c4ccccc34)n2)cc1` the lipid storage change, negative = inhibition was inconclusive: 10.6%. With `Nc1nonc1-n1nnc(C(=O)N/N=C/c2ccoc2)c1CSc1ccccc1` the lipid storage change, negative = inhibition was inconclusive: -58.8%. For `CC(C)C(=O)N(c1ccc2oc(=O)sc2c1)S(=O)(=O)c1ccccc1`, the lipid storage change, negative = inhibition was inconclusive: 95.4%. For `CC(=O)c1cc2c(cc1NC(=O)c1ccc(C)cc1)OCCO2`, the lipid storage change, negative = inhibition was inconclusive: -18.2%.
